# Measured values taken from PubChem BioAssay (Tox21).
# The chains behind the UniProt entries cited, without tags or fusion partners. Where a name states a change or a piece, a line headed by the entry shows the natural chain unless it says otherwise.
# UniProt P19793: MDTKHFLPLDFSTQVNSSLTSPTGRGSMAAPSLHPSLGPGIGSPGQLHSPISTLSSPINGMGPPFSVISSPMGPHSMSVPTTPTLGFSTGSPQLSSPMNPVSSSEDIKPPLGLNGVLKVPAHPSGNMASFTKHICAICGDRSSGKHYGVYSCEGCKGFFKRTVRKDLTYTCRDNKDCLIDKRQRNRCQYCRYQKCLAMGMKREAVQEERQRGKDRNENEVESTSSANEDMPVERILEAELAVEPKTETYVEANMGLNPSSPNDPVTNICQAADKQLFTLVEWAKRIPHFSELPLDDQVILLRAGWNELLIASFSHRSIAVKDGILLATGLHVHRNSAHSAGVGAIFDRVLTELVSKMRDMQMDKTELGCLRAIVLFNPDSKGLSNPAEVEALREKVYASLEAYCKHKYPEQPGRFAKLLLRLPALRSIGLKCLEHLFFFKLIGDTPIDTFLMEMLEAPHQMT
# Several values for one entry are separate records, joined by “and”; a condition that tells them apart may be missing. Equal entries are not always repeated. The shares of active, inactive and inconclusive entries below differ from those in the screen. For some of these results: A potency beside an inconclusive call is a rough fit, not a confirmed value. Activity calls are given as the source filed them. Unless noted, calls come from the whole dose curve; as a rule, active = well fitted curve in the direction sought with a large enough effect in the repeat runs; inconclusive = weak or mixed curves; inactive = no such curve, though single readings can be large; an effect the other way counts as inactive or inconclusive.
# Columns and labels:
# [1] = target: Retinoic acid receptor RXR-alpha (Homo sapiens) (UniProt P19793); experiment: qHTS assay to identify small molecule agonists of the RXR signaling pathway (AID 1159527; calls by dose curve; note: nearly all actives have a fitted effect of over 35% in size; note: potency is the fitted concentration of half-maximal effect; for activation: % is set by controls: 0 for no effect and ±100 for the full control effect); conditions: HEK293T RXRa-UAS-bla, beta-lactamase ratio, 16 h; activation: at 76.8 µM (top of the series) unless noted
# Procedure, shortened: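 Fluorescence ratio readout (460 vs 530 nm) from GeneBLAzer RXR-alpha HEK 293T cells after 16 hr compound treatment; cells seeded 5 hr beforehand in low-serum, charcoal-stripped medium.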
# [2] = qHTS assay to identify small molecule agonists of the RXR signaling pathway - cell viability counter screen (AID 1159529); note: nearly all actives have a fitted effect of over 50% in size; note: potency is the fitted concentration of half-maximal effect
# Procedure, shortened: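 Viability read-out for the RXR-alpha agonist qHTS: luminescent CellTiter-Glo signal after 30 min at RT. HEK 293T bla reporter cells, 2% charcoal-stripped FBS, 16 hr compound incubation; tetraoctyl ammonium bromide as cytotoxic control.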
# [3] = qHTS assay to identify small molecule agonists of the retinoic acid receptor (RAR) signaling pathway (AID 1159553); conditions: C3RL4 RARE luciferase reporter, agonist, 6 h; note: potency is the fitted concentration of half-maximal effect; for activation: % is set by controls: 0 for no effect and ±100 for the full control effect
# Procedure, shortened: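 Luminescence was measured 30 min after luciferase reagent addition at room temperature. Before that, C3RL4 reporter cells (1,000 per well, plated overnight) were treated with compound for 6 hr at 37 C and 5% CO2.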
# [4] = qHTS assay to identify small molecule antagonists of the retinoic acid receptor (RAR) signaling pathway (AID 1159552; note: potency is the fitted concentration of half-maximal effect; nearly all actives have a fitted effect of over 50% in size)
# Procedure, shortened: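 Using a RARE-driven luciferase construct in C3RL4 cells, retinol at 1 uM final provided the agonist stimulus while compounds were co-applied. After 6 hours at 37 C, luminescence was recorded to flag inhibitors of retinol signaling.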
# [5] = qHTS assay to identify small molecule antagonists of the retinoid acid receptor (RAR) signaling pathway - cell viability counter screen (AID 1159551); note: nearly all actives have a fitted effect of over 35% in size; note: potency is the fitted concentration of half-maximal effect
# Procedure, shortened: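 Cytotoxicity counter screen: ATP content quantified by CellTiter-Glo luminescence in C3RL4 cells treated 6 hr at 37 C with compound and retinol (1 uM final). Cells plated at 1,000/well and cultured overnight before dosing.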
# [6] = qHTS assay to identify small molecule antagonists of the estrogen related receptor (ERR) signaling pathway (AID 1224819; note: nearly all actives have a fitted effect of over 50% in size; note: potency is the fitted concentration of half-maximal effect)
# Procedure, shortened: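 LOPAC library screened for antagonism as reduced One-Glo luminescence in ERR reporter cells (2,000/well). Compounds were added after 6 h pre-incubation and left 18 h at 37C; reading followed a 30 min room-temperature reagent step.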
# [7] = qHTS assay to identify small molecule antagonists of the estrogen related receptor signaling pathway with the pleiotropic PPARgamma coactivator (PGC) cell viability counter screen (AID 1224822; note: potency is the fitted concentration of half-maximal effect)
# Procedure, shortened: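 Viability counter-screen read by fluorescence intensity after 30 min with CellTiter-Fluor at 37 C; PGC/ERR reporter cells were exposed to compounds for 17.5 h at 37 C following a 6 h preincubation.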
# [8] = qHTS assay to identify small molecule agonists of the estrogen related receptor (ERR) signaling pathway (AID 1224820); note: % is set by controls: 0 for no effect and ±100 for the full control effect
# Procedure, shortened: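 After 6 h plating (2,000 cells/well) and 18 h compound treatment at 37 C, ERR cells were lysed with One-Glo and luminescence read after 30 min at room temperature.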
# [9] = test system: estrogen-related receptor alpha (ERRalpha) with PGC-1alpha coactivator, human; experiment: qHTS assay to identify small molecule antagonists of the estrogen related receptor signaling pathway with the pleiotropic PPARgamma coactivator (PGC) (AID 1224821; calls by dose curve;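 note: % is set by controls: 0 for no effect and ±100 for the full control effect; lower luminescence signal means antagonism of PGC/ERR signalling; nearly all actives have a fitted effect of over 50% in size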)
# Procedure, shortened: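 Luminescence from One-Glo luciferase reagent (30 min, room temperature) measured after 18 h compound treatment at 37 °C. Cells carry the PGC/ERR reporter and were seeded 6 h prior to dosing.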
# [10] = qHTS assay to identify small molecule antagonists of the estrogen related receptor (ERR) signaling pathway - cell viability counter screen (AID 1224818); note: potency is the fitted concentration of half-maximal effect;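 note: viability measured after 17.5 h of compound exposure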
# Procedure, shortened: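 Cytotoxicity counter screen: fluorescence from CellTiter-Fluor, added after 17.5 h compound exposure at 37 C and read 30 min later. ERR cell line seeded at 2,000 cells/well, preincubated 6 h before dosing.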
# [11] = activation: at 73.3 µM (top of the series) unless noted
smiles,measurement,setting,value
CCCCCCOc1ccc(N)cc1,Potency,[1],"inconclusive: 4.36 µM [inhibitor, full curve]"
same,Potency,[2],"inconclusive: 19.5 µM [cytotoxic, partial curve]"
same,Potency,[3]; [11],active: 10.9 µM
CC(C)CC(=O)O,Potency,[1],active: 10.7 µM
same,Potency,[2],inactive
same,Potency,[4],"inconclusive: 21.2 µM [inhibitor, partial curve, poor fit]"
Cc1c(Nc2ncccc2C(=O)O)cccc1C(F)(F)F,Potency,[1],inconclusive: 26.8 µM [activator]
same,Potency,[2],"inconclusive: 23.9 µM [cytotoxic, partial curve]"
same,Potency,[3]; [11],"inconclusive: 33.5 µM [activator, single point]"
O=C1c2cccc(O)c2C(=O)c2c(O)cc(CO)cc21,activation,[1],inconclusive: -4.52%
same,Potency,[2],"inconclusive: 6.16 µM [cytotoxic, partial curve, poor fit]"
same,Potency,[3]; [11],"inconclusive: 38.6 µM [activator, partial curve, poor fit]"
COc1cc(Cl)ccc1Oc1ccc(Cl)cc1Cl,Potency,[1],inactive
same,Potency,[2],inconclusive: 53.4 µM [cytotoxic]
same,Potency,[3]; [11],"inconclusive: 37.5 µM [activator, partial curve, poor fit]"
O=C(O)Cc1sc(-c2ccccc2)nc1-c1ccc(Cl)cc1,Potency,[1],"inconclusive: 10.7 µM [fluorescent, partial curve, poor fit]"
same,Potency,[2],"inconclusive: 19 µM [cytotoxic, partial curve, poor fit]"
same,Potency,[3]; [11],inactive
CC1=C2[C@H](/C=C(\C)C(=O)O)CC[C@@H](C)[C@H]2CC1,activation,[1],inconclusive: -15.6%
same,Potency,[2],active: 45.3 µM
same,Potency,[3]; [11],"inconclusive: 71.1 µM [inhibitor, single point]"
O=C(Oc1ccccc1)c1ccccc1,Potency,[1],"inconclusive: 49 µM [inhibitor, partial curve, poor fit]"
same,Potency,[2],"inconclusive: 49 µM [cytotoxic, partial curve, poor fit]"
same,Potency,[3]; [11],"inconclusive: 77 µM [inhibitor, single point]"
C/C=C/C(=O)CC,Potency,[1],"inconclusive: 8.4 µM [inhibitor, partial curve]"
same,Potency,[2],"inconclusive: 8.4 µM [cytotoxic, single point]"
same,activation,[3]; [11],inconclusive: 4.37% [phenotype inactive] [at 18.1 µM]
CC(=O)[O][Al],activation,[1],inconclusive: 3.98%
same,Potency,[5],"inconclusive: 31.3 µM [rising, partial curve, poor fit]"
NC(=O)c1ncn([C@@H]2O[C@H](CO)[C@@H](O)[C@H]2O)c1N,Potency,[1],inactive
same,Potency,[5],"inconclusive: 18.8 µM [rising, partial curve]"
C=CC(C)(O)CCCC(C)CCCC(C)CCCC(C)C (stereo not given),Potency,[1],active: 6.13 µM
same,Potency,[5],"inconclusive: 27.2 µM [rising, single point]"
Cc1ccc(N)cc1[N+](=O)[O-],Potency,[1],inactive
same,Potency,[5],"inconclusive: 27.5 µM [rising, single point]"
O=C(NCCCN1CCOCC1)c1ccc(Cl)cc1,activation,[1],inconclusive: 0.528% [at 35.3 µM]
same,Potency,[2],inactive
same,Potency,[3]; [11],"inconclusive: 29.8 µM [activator, partial curve, poor fit]"
CC(C)c1cc2c(cc1S(=O)(=O)O)[C@@]1(C)CCC[C@@](C)(C(=O)O)[C@@H]1CC2,Potency,[1],inactive
same,Potency,[5],inactive
c1cc(CN2CCCCC2)cc(OCCCNc2nc3ccccc3s2)c1,Potency,[1],inconclusive: 23.9 µM [inhibitor]
same,Potency,[2],inactive
same,Potency,[6],inconclusive: 28.2 µM [inhibitor]
same,Potency,[7],inconclusive: 28.2 µM [cytotoxic]
CC1COc2c(N3CCN(C)CC3)c(F)cc3c(=O)c(C(=O)O)cn1c23 (stereo not given),Potency,[1],inactive
same,Potency,[5],inactive
NNc1nncc2ccccc12,Potency,[1],inconclusive: 54.9 µM [single point]
same,Potency,[2],"inconclusive: 21.9 µM [cytotoxic, full curve, poor fit]"
same,Potency,[3]; [11],active: 770 nM and active: 5.17 µM
same,Potency,[7],inactive
OC1CCCCC1c1ccccc1 (stereo not given),Potency,[1],inactive
same,Potency,[5],inactive
CCCCCC(C)=O,Potency,[1],inactive
same,Potency,[2],"inconclusive: 54.9 µM [cytotoxic, single point]"
same,activation,[3]; [11],inconclusive: 10.2% [phenotype inactive]
same,activation,[3]; at 94.8 µM (top of the series),inactive: -0.999%
CC1=C(CC(=O)O)c2cc(F)ccc2/C1=C\c1ccc(S(C)(=O)=O)cc1,Potency,[1],"inconclusive: 16.9 µM [fluorescent, partial curve]"
same,Potency,[2],inactive
same,Potency,[8],inactive
same,Potency,[9],inactive
COc1ccnc2c1CCCCC2S(=O)c1nc2ccccc2[nH]1 (stereo not given),Potency,[1],"inconclusive: 26.8 µM [rising, partial curve]"
same,Potency,[2],"inconclusive: 12 µM [cytotoxic, partial curve, poor fit]"
same,Potency,[3]; [11],"inconclusive: 26.6 µM [activator, partial curve, poor fit]"
Cc1ccc2ccccc2c1[N+](=O)[O-],activation,[1],inconclusive: 18.9%
same,Potency,[5],inactive
OCc1cc(C(O)CNCCCCCCOCCCCc2ccccc2)ccc1O (stereo not given),Potency,[1],"inconclusive: 15.1 µM [inhibitor, partial curve, poor fit]"
same,Potency,[2],"inconclusive: 10.7 µM [cytotoxic, partial curve, poor fit]"
same,Potency,[10],inconclusive: 28.2 µM [cytotoxic]
same,Potency,[6],"inconclusive: 26.6 µM [inhibitor, partial curve, poor fit]"
O=C(Oc1ccccc1C(=O)O)c1ccccc1O,Potency,[1],inactive
same,Potency,[5],inactive
COc1cc2c(cc1OC)-c1cc(=Nc3c(C)cc(C)cc3C)n(C)c(=O)n1CC2,Potency,[1],inconclusive: 26.8 µM [single point]
same,Potency,[2],"inconclusive: 26.8 µM [cytotoxic, single point]"
same,activation,[3]; [11],inconclusive: -8.36% [phenotype inactive]
same,Potency,[7],inconclusive: 23.7 µM [cytotoxic]
Nc1ccc(F)c([N+](=O)[O-])c1,Potency,[1],inactive
same,Potency,[5],inactive
CC(C)(C)NCC(O)COc1ccc(NC(=O)NC2CCCCC2)cc1 (stereo not given),activation,[1],inconclusive: -21.1% [at 35.3 µM]
same,Potency,[2],"inconclusive: 21.3 µM [cytotoxic, partial curve, poor fit]"
same,Potency,[3]; [11],"inconclusive: 11.9 µM [activator, partial curve]"
CCC1=C(C)CN(C(=O)NCCc2ccc(S(=O)(=O)NC(=O)NC3CCC(C)CC3)cc2)C1=O (stereo not given),activation,[1],inconclusive: -3.68% [at 35.3 µM]
same,Potency,[5],inactive
CC(C)CC=O,activation,[1],inconclusive: 10.4%
same,Potency,[5],inactive
CC(CC(=O)Cl)CC(C)(C)C (stereo not given),Potency,[1],inactive
same,Potency,[5],inactive
CCN1CC(CCN2CCOCC2)C(c2ccccc2)(c2ccccc2)C1=O (stereo not given),Potency,[1],inactive
same,Potency,[5],inactive
CNCCCC1c2ccccc2C=Cc2ccccc21,Potency,[1],inconclusive: 23.9 µM [inhibitor]
same,Potency,[2],"inconclusive: 10.7 µM [cytotoxic, partial curve]"
same,Potency,[3]; [11],"inconclusive: 23.7 µM [inhibitor, partial curve]"
same,Potency,[7],"inconclusive: 29.8 µM [cytotoxic, partial curve, poor fit]"
CCCCCCCCCCCCCCCC(=O)OC/C=C(C)/C=C/C=C(C)/C=C/C1=C(C)CCCC1(C)C,activation,[1],inconclusive: -10.1%
same,Potency,[5],inactive
CCCCNC(=O)NS(=O)(=O)c1ccc(C)cc1,Potency,[1],"inconclusive: 54.7 µM [activator, partial curve, poor fit]"
same,Potency,[5],"inconclusive: 15.4 µM [cytotoxic, partial curve, poor fit]"
CC(=O)CC(=O)Nc1ccc(C)cc1C,Potency,[1],inactive
same,Potency,[5],inactive
CCOC(=O)c1cc(=O)c2c(OCC(COc3cccc4oc(C(=O)OCC)cc(=O)c34)OC(=O)[C@@H](N)CCCCN)cccc2o1,Potency,[1],inactive
same,Potency,[5],inactive
Cc1nc(-c2ccccn2)ncc1C(=O)Nn1cc(C)c2cc(F)ccc21,Potency,[1],"inconclusive: 21.9 µM [inhibitor, partial curve, poor fit]"
same,Potency,[2],"inconclusive: 49 µM [cytotoxic, partial curve]"
same,Potency,[3]; [11],inconclusive: 68.6 µM [activator]
O=C(c1ccc(O)cc1)c1ccc(O)cc1,Potency,[1],"inconclusive: 43.6 µM [rising, partial curve, poor fit]"
same,Potency,[5],"inconclusive: 77 µM [rising, partial curve, poor fit]"
N#CCN(CC#N)CCN(CC#N)CC#N,Potency,[1],inactive
same,Potency,[5],inactive
CCN(CC)CCOc1ccc2c(c1)C(=O)c1cc(OCCN(CC)CC)ccc1-2,activation,[1],inconclusive: -27.6% [at 35.3 µM]
same,Potency,[2],"inconclusive: 6.01 µM [cytotoxic, full curve]"
same,Potency,[3]; [11],"inconclusive: 26.6 µM [activator, partial curve]"
CN1CCN(C2=Nc3ccccc3Oc3ccc(Cl)cc32)CC1,Potency,[1],"inconclusive: 16.9 µM [rising, partial curve]"
same,Potency,[2],"inconclusive: 16.9 µM [cytotoxic, partial curve]"
same,Potency,[3]; [11],inactive
same,Potency,[6],inactive
C[N+](C)(C)CCOC(N)=O,Potency,[1],inactive
same,Potency,[2],inactive
same,Potency,[10],inactive
CC(=O)CC(=O)c1ccccc1,Potency,[1],"inconclusive: 5.53 µM [inhibitor, single point]"
same,Potency,[5],"inconclusive: 13.8 µM [cytotoxic, partial curve, poor fit]"
C=COCCCC,Potency,[1],"inconclusive: 0.275 µM [rising, full curve, poor fit]"
same,Potency,[5],inactive
C=CC(=O)CC,Potency,[1],inactive
same,Potency,[5],inactive
C=CS(=O)(=O)O,Potency,[1],inactive
same,Potency,[5],inactive
CCNc1cccc(C)c1,Potency,[1],"inconclusive: 16.7 µM [activator, full curve]"
same,Potency,[5],inactive
same,Potency,[4],"inconclusive: 20.8 µM [inhibitor, partial curve, poor fit]"
COCC(O)CO (stereo not given),Potency,[1],inactive
same,Potency,[5],inactive

# No new results follow: an excerpt of the list.
smiles,measurement,setting,value
CC(C)CC=O,activation,[1],inconclusive: 10.4%
same,Potency,[5],inactive
CC(CC(=O)Cl)CC(C)(C)C (stereo not given),Potency,[1],inactive
